We go through 23 compounds from US8058332B2, “Phosphorus-sulfur FR additives and polymer systems containing same” (priority 2006, dated 2011).

This data set can be described thus: Limiting Oxygen Index (LOI), ASTM D 2863, of polystyrene blends with the FR additive.
Where [1] appears, read: plaques, blend of 3% of the product in 97% polystyrene.

For the compound “2,2′,2″,2″′-[1,2,4,6-phenylenetetra(methylthio)]tetra[5,5-dimethyl-1,3,2-dioxaphosphorinane]-2,2′,2″,2″′-sulfide [Example 7]”, the LOI (plaques, blend of 2.8% of the product in 97.2% polystyrene) is given as 24.3%.

Turning to `CC1(C)COP(=S)(SC/C=C/CSP2(=S)OCC(C)(C)CO2)OC1` [Example 1, 2,2′-[2-butene-1,4-diylbis(methylthio)]bis[5,5-dimethyl-1,3,2-dioxaphosphorinane]-2,2′-disulfide], the LOI is recorded as 26.5% (plaques, melt blend with polystyrene resin at 4:96 weight ratio) and 24.7% (polystyrene foam, 4.2% by weight FR additive, bulk density ~2.5 pcf).

The compound `CC1(C)COP(=S)(SCc2ccccc2CSP2(=S)OCC(C)(C)CO2)OC1` [Example 4, 2,2′-[1,2-phenylenebis(methylthio)]bis[5,5-dimethyl-1,3,2-dioxaphosphorinane]-2,2′-disulfide] showed an LOI under setting [1] of 23% and an LOI (polystyrene foam, blend of 3% of the product in 97% polystyrene) of 23.3%.

Where the note is “plaques, blend of 2.5% of the product in 97.5% polystyrene”, `CC1(C)COP(=O)(SCc2ccccc2CSP2(=O)OCC(C)(C)CO2)OC1` [Example 5, 2,2′-[1,2-phenylenebis(methylthio)]bis[5,5-dimethyl-1,3,2-dioxaphosphorinane]-2,2′-dioxide] came in with an LOI of 21.5.

For `Cc1c(CSP2(=S)OCC(C)(C)CO2)c(C)c(CSP2(=S)OCC(C)(C)CO2)c(C)c1CSP1(=S)OCC(C)(C)CO1` [Example 8, 2,2′,2″-[2,4,6-trimethyl-1,3,5-phenylenetris(methylthio)]tris[5,5-dimethyl-1,3,2-dioxaphosphorinane]-2,2′,2″-disulfide], the LOI is, setting by setting: (plaques, blend of 3.1% of the product in 96.9% polystyrene) 24.2%; (polystyrene foam (2.54 pcf), blend of 3.1% of the product in 96.9% polystyrene) 27%.

For `CC1(C)COP(=S)(SCP(=O)(CSP2(=S)OCC(C)(C)CO2)CSP2(=S)OCC(C)(C)CO2)OC1` [Example 16], under “plaques, blend of 2.7% of the product in 97.3% polystyrene (Example 16)”, the LOI is given as 22.8.

As for `CC1(C)COP(=S)(Sc2nc(SP3(=S)OCC(C)(C)CO3)nc(SP3(=S)OCC(C)(C)CO3)n2)OC1` [Example 17, 2,2′,2″-[s-triazine-2,4,6-tris(thio)]tris[(5,5-dimethyl-1,3,2-dioxaphosphorinane)-2,2′,2″-sulfide]], under “plaques, blend of 2.7% of the product in 97.3% polystyrene (Example 17)”, the LOI was found to be 23.8.

On to `CC1(C)COP(=S)(N(Cc2ccccc2)P2(=S)OCC(C)(C)CO2)OC1` [Example 18, N-benzyl-N-(5,5-dimethyl-2-sulfido-1,3,2-dioxaphosphorinan-2-yl)-5,5-dimethyl-1,3,2-dioxaphosphorinan-2-amine-2-sulfide], for which the LOI (plaques, blend of 4.8% of the product in 95.2% polystyrene (Example 18)) came to 23.

Compound `CC1(C)COP(=S)(Cc2ccccc2CP2(=S)OCC(C)(C)CO2)OC1` [Example 19, [1,2-phenylenebis(methylene)]bis[5,5-dimethyl[1,3,2]dioxaphosphorinane]2,2′-disulfide] had an LOI (plaques, blend of 5.1% of the product in 94.9% polystyrene) of 22.8.

`CC1(C)COP(=S)(SCCCCSP2(=S)OCC(C)(C)CO2)OC1` [Example 20, 2,2′-[1,4-butylbis(methylthio)]bis[5,5-dimethyl-1,3,2-dioxaphosphorinane]-2,2′-disulfide] displayed an LOI (plaques, blend of 2.9% of the product in 97.1% polystyrene) of 22.6.

As to `CC1(C)COP(=S)(SC2CC3CC2CC3SP2(=S)OCC(C)(C)CO2)OC1` (centres unmarked) [Example 21, 2,2′-[bicyclo[2.2.1]heptane-2,5-diylbis(thio)]bis[5,5-dimethyl-1,3,2-dioxaphosphorinane]2,2′-disulfide], the LOI under setting [1] was found to be 23.

Turning to `CCOC(=O)CC(SP1(=S)OCC(C)(C)CO1)C(=O)OCC` (centres unmarked) [Example 23], where the note is “plaques, blend of 4.6% of the product in 95.4% polystyrene (Example 23)”, the LOI stood at 23.2.

The compound `CC(CCCCCCC(C)SP1(=S)OCC(C)(C)CO1)SP1(=S)OCC(C)(C)CO1` (centres unmarked) [Example 24, 2,2′-[decane-2,9-diylbis(thio)]bis(5,5-dimethyl-1,3,2-dioxaphosphorinane)2,2′-disulfide] yielded an LOI (plaques, blend of 6.3% of the product in 93.7% polystyrene) of 24.3.

In turn, `CC1(C)COP(=S)(SC(c2ccccc2)c2ccccc2)OC1` [Example 25, 2-[(diphenylmethyl)thio]-5,5-dimethyl-1,3,2-dioxaphosphorinane 2-sulfide] gave an LOI (plaques, blend of 8.3% of the product in 91.7% polystyrene) of 26.

In the case of `O=P1(SC/C=C/CSP2(=O)Oc3ccccc3-c3ccccc32)Oc2ccccc2-c2ccccc21` (centres unmarked) [Example 26], the LOI (plaques, blend of 6.4% of the product in 93.6% polystyrene) came to 24.8.

As to `CC1(C)COP(=O)(Cc2ccc(CSP3(=S)OCC(C)(C)CO3)cc2)OC1` [Example 28, 2-({4-[(5,5-dimethyl-2-oxido-1,3,2-dioxaphosphorinan-2-yl)methyl]benzyl}thio)-5,5-dimethyl-1,3,2-dioxaphosphorinane-2-sulfide], the LOI (plaques, blend of 4.8% of the product in 95.2% polystyrene (Example 28)) amounted to 21.7.

Regarding `O=P1(SCc2ccccc2CSP2(=O)Oc3ccccc3-c3ccccc32)Oc2ccccc2-c2ccccc21` (centres unmarked) [Example 29, 6,6′-[1,2-phenylenebis(methylenethio)]bis(6H-dibenz[c, e][1,2]oxaphosphorin) 6,6′-dioxide], the LOI (plaques, blend of 7% of the product in 93% polystyrene) is reported as 24.8.

The compound `Cc1c(CSP2(=O)Oc3ccccc3-c3ccccc32)c(C)c(CSP2(=O)Oc3ccccc3-c3ccccc32)c(C)c1CSP1(=O)Oc2ccccc2-c2ccccc21` (centres unmarked) [Example 30, 6,6′,6″-[(2,4,6-trimethylbenzene-1,3,5-triyl)tris(methylenethio)]tris(6H-dibenzo-[c, e][1,2]oxaphosphorin) 6,6′,6″-trioxide] displayed an LOI (plaques, blend of 6.2% of the product in 93.8% polystyrene) of 24.8%.

Under “plaques, blend of 4.6% of the product in 95.4% polystyrene (Example 31)”, `CC(COCC(COCC(C)SP1(=S)OCC(C)(C)CO1)(COCC(C)SP1(=S)OCC(C)(C)CO1)COCC(C)SP1(=S)OCC(C)(C)CO1)SP1(=S)OCC(C)(C)CO1` (centres unmarked) [Example 31] came in with an LOI of 23.5.

Turning to `CC1(C)COP(=S)(SCc2c(CSP3(=S)OCC(C)(C)CO3)c(CSP3(=S)OCC(C)(C)CO3)c(CSP3(=S)OCC(C)(C)CO3)c(CSP3(=S)OCC(C)(C)CO3)c2CSP2(=S)OCC(C)(C)CO2)OC1` [Example 33, 2,2′,2″,2″′,2″″′,2″″″-[benzene-1,2,3,4,5,6-hexaylhexakis(methylenethio)]hexakis(5,5-dimethyl-1,3,2-dioxaphosphorinane) 2,2′,2″,2″′,2′″″,2″″″-hexasulfide], the LOI (plaques, blend of 5.3% of the product in 94.7% polystyrene) stood at 24.3.

The compound `CC1(C)COP(=S)(SCCC(=O)NCNC(=O)CCSP2(=S)OCC(C)(C)CO2)OC1` [Example 36] gave an LOI (plaques, blend of 6.9% of the product in 93.1% polystyrene) of 24.5.

Take `CC1(C)COP(=S)(SC(c2ccccc2)c2cccc(C(SP3(=S)OCC(C)(C)CO3)c3ccccc3)c2)OC1` (centres unmarked) [Example 37, 2,2′-{1,3-phenylenebis[(phenylmethylene)thio]}bis(5,5-dimethyl-1,3,2-dioxaphosphorinane) 2,2′-disulfide]: for the setting “plaques, blend of 8.1% of the product in 91.9% polystyrene”, the LOI is reported as 25.8%.

Consider `S=P1(CC(c2ccccc2)c2ccccc2)OCC2(CO1)COP(=S)(SC(c1ccccc1)c1ccccc1)OC2` (centres unmarked) [Example 38], for which, where the note is “plaques, blend of 8.2% of the product in 91.8% polystyrene”, the LOI is 26.7%.
